According to paper PMC4591342:
No constants are given. Whether binding was seen depends on the method and setting. Binding seen in cells or lysates may run through a third protein. Where a sequence is shown, tags or fusion partners need not be part of it.

Biological target: N. benthamiana myosin XI-K globular tail domain fused with maltose-binding protein (Nicotiana benthamiana)
Test: pull-down; MBP-XIK GTD or MBP-GUS immobilised on resin; GFP-fused proteins detected before (input) and after pull-down by immunoblot with rabbit polyclonal GFP-specific antibody; done as described in ref. 30

B1: C-terminal domain of mammalian reovirus non-structural protein μNS fused to GFP (domain or fragment, UniProt P12419-1 471-721)
chain: SNDVTDGIKLQLDASRQCHECPVLQQKVVELEKQIIMQKSIQSDPTPVALQPLLSQLRELSSEVTRLQMELSRAQSLNAQLEADVKSAQSCSLDMYLRHHTCINGHAKEDELLDAVRVAPDVRREIMEKRSEVRQGWCERISKEAAAKCQTVIDDLTLMNGKQAQEITELRDSAEKYEKQIAELVSTITQNQITYQQELQALVAKNVELDALNQRQAKSLRITPSLLSATPIDSVDDVADLIDFSVPTDEL
  binding: no binding
